From the supplement of paper PMC10032668
Some of the results follow. Only hits are listed; about a third recur on repeated control peptides.

By UniProt entry, the sequences of proteins in these tests, tags left out.
CALR, P27797, UniProt P27797, whole entry: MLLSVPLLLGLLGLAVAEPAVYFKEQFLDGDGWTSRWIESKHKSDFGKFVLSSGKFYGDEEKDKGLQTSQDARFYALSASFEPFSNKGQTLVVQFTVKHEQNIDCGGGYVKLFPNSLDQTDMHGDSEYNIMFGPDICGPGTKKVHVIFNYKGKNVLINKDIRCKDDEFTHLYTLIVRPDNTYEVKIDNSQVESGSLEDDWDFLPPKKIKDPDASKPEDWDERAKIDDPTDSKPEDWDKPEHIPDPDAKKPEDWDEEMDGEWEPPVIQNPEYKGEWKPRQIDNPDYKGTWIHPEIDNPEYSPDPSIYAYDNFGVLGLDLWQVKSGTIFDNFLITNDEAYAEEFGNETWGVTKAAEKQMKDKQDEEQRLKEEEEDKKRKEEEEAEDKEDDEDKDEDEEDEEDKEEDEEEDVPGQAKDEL
GSPT2, Q8IYD1, UniProt Q8IYD1, whole entry: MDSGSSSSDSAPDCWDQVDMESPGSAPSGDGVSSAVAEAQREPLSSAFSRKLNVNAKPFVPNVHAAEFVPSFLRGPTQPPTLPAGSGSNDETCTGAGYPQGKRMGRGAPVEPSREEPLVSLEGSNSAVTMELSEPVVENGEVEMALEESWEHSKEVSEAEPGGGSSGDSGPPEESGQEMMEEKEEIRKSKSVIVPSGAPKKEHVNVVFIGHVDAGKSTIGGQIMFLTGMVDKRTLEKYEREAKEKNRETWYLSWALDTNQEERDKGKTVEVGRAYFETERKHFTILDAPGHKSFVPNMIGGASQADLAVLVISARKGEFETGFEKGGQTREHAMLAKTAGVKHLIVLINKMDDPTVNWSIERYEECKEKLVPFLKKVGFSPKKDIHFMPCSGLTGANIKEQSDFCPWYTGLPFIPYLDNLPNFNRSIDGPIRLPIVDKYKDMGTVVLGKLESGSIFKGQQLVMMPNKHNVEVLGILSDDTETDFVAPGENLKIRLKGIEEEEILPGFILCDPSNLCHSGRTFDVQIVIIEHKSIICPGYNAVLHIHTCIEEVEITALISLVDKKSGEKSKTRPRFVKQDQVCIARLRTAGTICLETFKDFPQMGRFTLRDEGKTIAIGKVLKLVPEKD
PABPC4, Q13310, UniProt Q13310, whole entry: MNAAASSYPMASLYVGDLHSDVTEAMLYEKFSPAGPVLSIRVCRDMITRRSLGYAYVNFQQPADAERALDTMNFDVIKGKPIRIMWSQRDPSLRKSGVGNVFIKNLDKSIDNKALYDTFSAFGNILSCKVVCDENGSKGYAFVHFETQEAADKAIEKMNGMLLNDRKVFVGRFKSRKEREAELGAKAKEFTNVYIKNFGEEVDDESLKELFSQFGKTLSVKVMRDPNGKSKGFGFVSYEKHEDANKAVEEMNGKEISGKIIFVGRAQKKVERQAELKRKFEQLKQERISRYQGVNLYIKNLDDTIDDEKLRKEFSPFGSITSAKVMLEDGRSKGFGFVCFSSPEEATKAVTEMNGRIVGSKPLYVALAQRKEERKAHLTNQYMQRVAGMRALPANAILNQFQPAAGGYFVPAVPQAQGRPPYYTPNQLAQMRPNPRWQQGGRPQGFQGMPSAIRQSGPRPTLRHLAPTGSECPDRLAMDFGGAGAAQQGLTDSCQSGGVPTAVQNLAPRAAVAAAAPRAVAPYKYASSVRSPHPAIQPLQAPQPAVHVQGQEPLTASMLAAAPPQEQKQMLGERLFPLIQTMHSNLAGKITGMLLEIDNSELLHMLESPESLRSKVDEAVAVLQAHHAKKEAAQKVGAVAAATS

Columns and labels:
Experiment in all cases: PRISMA enrichment of interactor (LFQ) in peptide spot vs all other peptide spots (log2 fold change); higher = stronger / more specific binding of the interactor to the peptide
[1] = molecular target: ACLY, P53396
Protocol: (§1)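 PRISMA: 15-aa overlapping tiles (offset 8 aa) of 60 microproteins, plus SOS1/GLUT1 control peptides, were spot-synthesized on cellulose membranes in triplicate. Membranes were incubated with benzonase-treated HEK293T lysate, and bound proteins were identified by LC-MS/MS with LFQ. Enrichment is the log2 fold change of each protein in one spot versus all other spots. Only interactors passing the significance cutoff are listed.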

[2] = molecular target: AP3B1, O00203
Protocol: as §1

[3] = molecular target: ATP6V1C1, P21283
Protocol: as §1

[4] = molecular target: BRIX1, Q8TDN6
Protocol: as §1

[5] = molecular target: C11orf98, E9PRG8
Protocol: as §1

[6] = molecular target: CALR, P27797
Protocol: as §1

[7] = molecular target: CDK8, P49336
Protocol: as §1

[8] = molecular target: CIP2A, Q8TCG1
Protocol: as §1

[9] = molecular target: CMAS, Q8NFW8
Protocol: as §1

[10] = molecular target: COX7A2, P14406
Protocol: as §1

[11] = molecular target: DIDO1, Q9BTC0
Protocol: as §1

[12] = molecular target: DSG2, Q14126
Protocol: as §1

[13] = molecular target: EI24, O14681
Protocol: as §1

[14] = molecular target: EYA3, Q99504
Protocol: as §1

[15] = molecular target: GNL2, Q13823
Protocol: as §1

[16] = molecular target: GSPT2, Q8IYD1
Protocol: as §1

[17] = molecular target: HECTD3, Q5T447
Protocol: as §1

[18] = molecular target: HSD17B12, Q53GQ0
Protocol: as §1

[19] = molecular target: LARP4, Q71RC2
Protocol: as §1

[20] = molecular target: LUZP1, Q86V48
Protocol: as §1

[21] = molecular target: MAP1B, P46821
Protocol: as §1

[22] = molecular target: MCM10, Q7L590
Protocol: as §1

[23] = molecular target: MON2, Q7Z3U7
Protocol: as §1

[24] = molecular target: MRTO4, Q9UKD2
Protocol: as §1

[25] = molecular target: MTDH, Q86UE4
Protocol: as §1

[26] = molecular target: MTFR1, Q15390
Protocol: as §1

[27] = molecular target: MTOR, P42345
Protocol: as §1

[28] = molecular target: NUP88, Q99567
Protocol: as §1

[29] = molecular target: NUSAP1, Q9BXS6
Protocol: as §1

[30] = molecular target: PRRC2C, Q9Y520
Protocol: as §1

[31] = molecular target: PSMD14, O00487
Protocol: as §1

[32] = molecular target: RBM17, Q96I25
Protocol: as §1

[33] = molecular target: SAP18, O00422
Protocol: as §1

[34] = molecular target: SERPINH1, P50454
Protocol: as §1

[35] = molecular target: SUMO2, P61956
Protocol: as §1

[36] = molecular target: TBCD, Q9BTW9
Protocol: as §1

[37] = molecular target: TRIR, Q9BQ61
Protocol: as §1

[38] = molecular target: TXLNG, Q9NUQ3
Protocol: as §1

[39] = molecular target: YIF1B, Q5BJH7
Protocol: as §1

[40] = molecular target: ACOT7, O00154
Protocol: as §1

[41] = molecular target: ADAR, P55265
Protocol: as §1

[42] = molecular target: AKAP1, Q92667
Protocol: as §1

[43] = molecular target: AP1B1, Q10567
Protocol: as §1

[44] = molecular target: C2orf49, Q9BVC5
Protocol: as §1

[45] = molecular target: CEP290, O15078
Protocol: as §1

[46] = molecular target: CKAP4, Q07065
Protocol: as §1

[47] = molecular target: DDX28, Q9NUL7
Protocol: as §1

[48] = molecular target: DPY30, Q9C005
Protocol: as §1

[49] = molecular target: ENAH, Q8N8S7
Protocol: as §1

[50] = molecular target: FBXO45, P0C2W1
Protocol: as §1

[51] = molecular target: GPI, P06744
Protocol: as §1

[52] = molecular target: HERC5, Q9UII4
Protocol: as §1

[53] = molecular target: MCM2, P49736
Protocol: as §1

[54] = molecular target: NUP153, P49790
Protocol: as §1

[55] = molecular target: PABPC4, Q13310
Protocol: as §1

[56] = molecular target: PKP2, Q99959
Protocol: as §1

[57] = substrate: PNN, Q9H307
Protocol: as §1

[58] = molecular target: PRPF4B
Protocol: as §1

[59] = molecular target: RRP36, Q96EU6
Protocol: as §1

[60] = molecular target: SAMM50, Q9Y512
Protocol: as §1

[61] = molecular target: SDAD1, Q9NVU7
Protocol: as §1

[62] = molecular target: STRBP, Q96SI9
Protocol: as §1

[63] = molecular target: TMEM201, Q5SNT2
Protocol: as §1

[64] = molecular target: ZC3H18, Q86VM9
Protocol: as §1

[65] = molecular target: ACOT9, Q9Y305
Protocol: as §1

[66] = molecular target: BIN1, O00499
Protocol: as §1

[67] = molecular target: BRAT1, Q6PJG6
Protocol: as §1

[68] = molecular target: BZW1, Q7L1Q6
Protocol: as §1

[69] = molecular target: C4A, P0C0L4
Protocol: as §1

[70] = molecular target: CBX4, O00257
Protocol: as §1

[71] = molecular target: CC2D1A, Q6P1N0
Protocol: as §1

[72] = molecular target: CD2AP, Q9Y5K6
Protocol: as §1

[73] = molecular target: CHAMP1, Q96JM3
Protocol: as §1

[74] = molecular target: CHD1, O14646
Protocol: as §1

[75] = molecular target: CHMP1A, Q9HD42
Protocol: as §1

[76] = molecular target: CPSF2, Q9P2I0
Protocol: as §1

[77] = molecular target: CUL1, Q13616
Protocol: as §1

[78] = molecular target: EXOC5, O00471
Protocol: as §1

[79] = molecular target: FKBP9, O95302
Protocol: as §1

[80] = molecular target: FYTTD1, Q96QD9
Protocol: as §1

[81] = molecular target: GATA6, Q92908
Protocol: as §1

[82] = molecular target: GRB2, P62993
Protocol: as §1

[83] = molecular target: HAX1, O00165
Protocol: as §1

[84] = molecular target: HIRIP3, Q9BW71
Protocol: as §1

[85] = molecular target: KLF16, Q9BXK1
Protocol: as §1

[86] = molecular target: LYPLAL1, Q5VWZ2
Protocol: as §1

[87] = molecular target: MPG, P29372
Protocol: as §1

[88] = molecular target: MRPL43, Q8N983
Protocol: as §1

[89] = molecular target: MRPS5, P82675
Protocol: as §1

[90] = molecular target: NCAPD2, Q15021
Protocol: as §1

[91] = molecular target: POLR2J3, Q9H1A7
Protocol: as §1

[92] = molecular target: PTP4A2, Q12974
Protocol: as §1

[93] = molecular target: RBM38, Q9H0Z9
Protocol: as §1

PSPVIHKMNGLTTGR [RP11-12K22.1]
PRISMA enrichment of interactor (log2) [1]: 8.64 | PRISMA enrichment of interactor (log2) [2]: 4.75 | PRISMA enrichment of interactor (log2) [3]: 5.17 | PRISMA enrichment of interactor (log2) [4]: 6.26 | PRISMA enrichment of interactor (log2) [5]: 4.74 | PRISMA enrichment of interactor (log2) [6]: 8.56 | PRISMA enrichment of interactor (log2) [7]: 3.96 | PRISMA enrichment of interactor (log2) [8]: 4.89 | PRISMA enrichment of interactor (log2) [9]: 5.65 | PRISMA enrichment of interactor (log2) [10]: 4.45 | PRISMA enrichment of interactor (log2) [11]: 5.46 | PRISMA enrichment of interactor (log2) [12]: 5.83 | PRISMA enrichment of interactor (log2) [13]: 5.72 | PRISMA enrichment of interactor (log2) [14]: 6.17 | PRISMA enrichment of interactor (log2) [15]: 4.9 | PRISMA enrichment of interactor (log2) [16]: 5.28 | PRISMA enrichment of interactor (log2) [17]: 5.62 | PRISMA enrichment of interactor (log2) [18]: 5.87 | PRISMA enrichment of interactor (log2) [19]: 4.48 | PRISMA enrichment of interactor (log2) [20]: 4.65 | PRISMA enrichment of interactor (log2) [21]: 4.27 | PRISMA enrichment of interactor (log2) [22]: 4.1 | PRISMA enrichment of interactor (log2) [23]: 4.76 | PRISMA enrichment of interactor (log2) [24]: 4.68 | PRISMA enrichment of interactor (log2) [25]: 5.54 | PRISMA enrichment of interactor (log2) [26]: 3.79 | PRISMA enrichment of interactor (log2) [27]: 6.28 | PRISMA enrichment of interactor (log2) [28]: 4.25 | PRISMA enrichment of interactor (log2) [29]: 4.49 | PRISMA enrichment of interactor (log2) [30]: 6.47 | PRISMA enrichment of interactor (log2) [31]: 8.95 | PRISMA enrichment of interactor (log2) [32]: 4.69 | PRISMA enrichment of interactor (log2) [33]: 5.41 | PRISMA enrichment of interactor (log2) [34]: 5.82 | PRISMA enrichment of interactor (log2) [35]: 4.9 | PRISMA enrichment of interactor (log2) [36]: 7.64 | PRISMA enrichment of interactor (log2) [37]: 4.07 | PRISMA enrichment of interactor (log2) [38]: 5.85 | PRISMA enrichment of interactor (log2) [39]: 4.19

MKAVVARTGAAAVSG [C5orf56]
PRISMA enrichment of interactor (log2) [40]: 5.29 | PRISMA enrichment of interactor (log2) [41]: 4.67 | PRISMA enrichment of interactor (log2) [42]: 4.95 | PRISMA enrichment of interactor (log2) [43]: 6.01 | PRISMA enrichment of interactor (log2) [44]: 3.76 | PRISMA enrichment of interactor (log2) [45]: 5.28 | PRISMA enrichment of interactor (log2) [46]: 6.82 | PRISMA enrichment of interactor (log2) [47]: 5.29 | PRISMA enrichment of interactor (log2) [48]: 3.98 | PRISMA enrichment of interactor (log2) [49]: 4.57 | PRISMA enrichment of interactor (log2) [50]: 7.76 | PRISMA enrichment of interactor (log2) [51]: 4.59 | PRISMA enrichment of interactor (log2) [52]: 5.34 | PRISMA enrichment of interactor (log2) [53]: 5.61 | PRISMA enrichment of interactor (log2) [23]: 4.01 | PRISMA enrichment of interactor (log2) [54]: 4.98 | PRISMA enrichment of interactor (log2) [55]: 6.91 | PRISMA enrichment of interactor (log2) [56]: 6.43 | PRISMA enrichment of interactor (log2) [57]: 5.57 | PRISMA enrichment of interactor (log2) [58]: 5.95 | PRISMA enrichment of interactor (log2) [30]: 5.24 | PRISMA enrichment of interactor (log2) [59]: 5.2 | PRISMA enrichment of interactor (log2) [60]: 4.52 | PRISMA enrichment of interactor (log2) [61]: 6.1 | PRISMA enrichment of interactor (log2) [62]: 4.17 | PRISMA enrichment of interactor (log2) [63]: 5.24 | PRISMA enrichment of interactor (log2) [64]: 7.43

EVPVPAPVAPARRP [SOS1_MUT_1]
PRISMA enrichment of interactor (log2) [65]: 6.1 | PRISMA enrichment of interactor (log2) [66]: 3.6 | PRISMA enrichment of interactor (log2) [67]: 4.35 | PRISMA enrichment of interactor (log2) [68]: 5.17 | PRISMA enrichment of interactor (log2) [69]: 3.67 | PRISMA enrichment of interactor (log2) [70]: 3.86 | PRISMA enrichment of interactor (log2) [71]: 8.88 | PRISMA enrichment of interactor (log2) [72]: 6.03 | PRISMA enrichment of interactor (log2) [73]: 4.17 | PRISMA enrichment of interactor (log2) [74]: 5.12 | PRISMA enrichment of interactor (log2) [75]: 4.56 | PRISMA enrichment of interactor (log2) [10]: 5.97 | PRISMA enrichment of interactor (log2) [76]: 6.06 | PRISMA enrichment of interactor (log2) [77]: 5.31 | PRISMA enrichment of interactor (log2) [78]: 5.18 | PRISMA enrichment of interactor (log2) [79]: 5.79 | PRISMA enrichment of interactor (log2) [80]: 4.06 | PRISMA enrichment of interactor (log2) [81]: 7.9 | PRISMA enrichment of interactor (log2) [82]: 5.23 | PRISMA enrichment of interactor (log2) [83]: 5.67 | PRISMA enrichment of interactor (log2) [84]: 4.01 | PRISMA enrichment of interactor (log2) [85]: 4.13 | PRISMA enrichment of interactor (log2) [86]: 5.22 | PRISMA enrichment of interactor (log2) [87]: 6.94 | PRISMA enrichment of interactor (log2) [88]: 4.46 | PRISMA enrichment of interactor (log2) [89]: 5.5 | PRISMA enrichment of interactor (log2) [90]: 4.65 | PRISMA enrichment of interactor (log2) [91]: 6.08 | PRISMA enrichment of interactor (log2) [92]: 5.52 | PRISMA enrichment of interactor (log2) [93]: 6.61
